Reference: publication PMC4583408

The chains behind the UniProt entries cited, without tags or fusion partners. Where a name states a change or a piece, a line headed by the entry shows the natural chain unless it says otherwise.
UniProt Q9VEZ3: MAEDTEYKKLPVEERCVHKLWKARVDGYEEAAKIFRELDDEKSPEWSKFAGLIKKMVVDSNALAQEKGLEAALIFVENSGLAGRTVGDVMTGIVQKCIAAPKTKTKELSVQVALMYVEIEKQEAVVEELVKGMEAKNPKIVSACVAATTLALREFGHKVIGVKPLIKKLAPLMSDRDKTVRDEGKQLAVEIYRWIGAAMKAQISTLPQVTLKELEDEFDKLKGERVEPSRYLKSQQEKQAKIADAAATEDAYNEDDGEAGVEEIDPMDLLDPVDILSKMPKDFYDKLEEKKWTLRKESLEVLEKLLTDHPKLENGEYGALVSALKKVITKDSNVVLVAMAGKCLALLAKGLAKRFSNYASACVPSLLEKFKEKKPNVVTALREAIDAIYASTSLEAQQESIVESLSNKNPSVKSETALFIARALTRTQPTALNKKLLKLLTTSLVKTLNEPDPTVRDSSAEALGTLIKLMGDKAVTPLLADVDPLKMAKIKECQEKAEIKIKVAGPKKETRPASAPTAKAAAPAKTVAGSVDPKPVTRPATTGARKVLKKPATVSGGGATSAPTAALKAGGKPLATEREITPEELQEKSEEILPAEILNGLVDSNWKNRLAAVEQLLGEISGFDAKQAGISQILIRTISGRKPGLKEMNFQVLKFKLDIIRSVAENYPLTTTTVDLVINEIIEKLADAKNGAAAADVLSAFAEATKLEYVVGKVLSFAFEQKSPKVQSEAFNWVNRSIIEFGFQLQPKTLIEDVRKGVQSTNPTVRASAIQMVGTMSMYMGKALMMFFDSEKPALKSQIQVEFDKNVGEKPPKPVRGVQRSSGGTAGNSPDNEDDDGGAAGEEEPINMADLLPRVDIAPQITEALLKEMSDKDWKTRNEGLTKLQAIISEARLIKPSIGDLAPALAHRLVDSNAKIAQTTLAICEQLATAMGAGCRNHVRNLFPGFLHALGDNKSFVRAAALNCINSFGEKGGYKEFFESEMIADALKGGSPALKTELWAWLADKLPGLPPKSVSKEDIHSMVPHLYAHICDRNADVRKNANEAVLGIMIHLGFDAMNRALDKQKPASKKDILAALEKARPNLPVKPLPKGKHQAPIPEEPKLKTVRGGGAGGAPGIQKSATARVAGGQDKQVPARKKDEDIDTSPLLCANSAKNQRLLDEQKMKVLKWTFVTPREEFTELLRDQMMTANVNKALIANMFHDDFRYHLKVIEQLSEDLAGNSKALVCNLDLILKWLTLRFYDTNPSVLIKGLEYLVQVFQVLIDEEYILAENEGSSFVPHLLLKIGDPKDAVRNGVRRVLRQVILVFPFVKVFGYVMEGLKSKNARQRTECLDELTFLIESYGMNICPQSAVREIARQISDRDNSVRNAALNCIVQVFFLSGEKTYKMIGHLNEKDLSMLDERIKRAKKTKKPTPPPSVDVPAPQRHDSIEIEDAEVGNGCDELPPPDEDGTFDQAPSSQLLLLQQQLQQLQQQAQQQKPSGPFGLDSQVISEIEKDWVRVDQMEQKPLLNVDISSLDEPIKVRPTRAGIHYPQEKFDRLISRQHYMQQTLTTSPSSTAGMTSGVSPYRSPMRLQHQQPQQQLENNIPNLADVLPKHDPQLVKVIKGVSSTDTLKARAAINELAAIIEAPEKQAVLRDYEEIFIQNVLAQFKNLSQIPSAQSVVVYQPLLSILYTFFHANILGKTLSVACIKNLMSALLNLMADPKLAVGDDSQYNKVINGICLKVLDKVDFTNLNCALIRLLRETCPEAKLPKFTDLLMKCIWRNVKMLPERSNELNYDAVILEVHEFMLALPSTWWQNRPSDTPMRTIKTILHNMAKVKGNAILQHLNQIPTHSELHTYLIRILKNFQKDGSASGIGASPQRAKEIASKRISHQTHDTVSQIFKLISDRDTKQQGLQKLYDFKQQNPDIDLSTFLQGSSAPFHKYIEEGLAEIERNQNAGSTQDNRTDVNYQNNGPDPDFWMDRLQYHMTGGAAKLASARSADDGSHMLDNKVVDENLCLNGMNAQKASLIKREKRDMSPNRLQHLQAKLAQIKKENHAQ

Key:
[1] = target: T1, Orbit/MAST, endogenous (Drosophila (endogenous in S2 cells)) (UniProt Q9NBD7); test: co-IP; lysate of S2 cells, control or GSK3β-depleted; immunoprecipitation of endogenous Orbit and Sentin, pre-immune serum of the Orbit rabbits as control
T1 sequence: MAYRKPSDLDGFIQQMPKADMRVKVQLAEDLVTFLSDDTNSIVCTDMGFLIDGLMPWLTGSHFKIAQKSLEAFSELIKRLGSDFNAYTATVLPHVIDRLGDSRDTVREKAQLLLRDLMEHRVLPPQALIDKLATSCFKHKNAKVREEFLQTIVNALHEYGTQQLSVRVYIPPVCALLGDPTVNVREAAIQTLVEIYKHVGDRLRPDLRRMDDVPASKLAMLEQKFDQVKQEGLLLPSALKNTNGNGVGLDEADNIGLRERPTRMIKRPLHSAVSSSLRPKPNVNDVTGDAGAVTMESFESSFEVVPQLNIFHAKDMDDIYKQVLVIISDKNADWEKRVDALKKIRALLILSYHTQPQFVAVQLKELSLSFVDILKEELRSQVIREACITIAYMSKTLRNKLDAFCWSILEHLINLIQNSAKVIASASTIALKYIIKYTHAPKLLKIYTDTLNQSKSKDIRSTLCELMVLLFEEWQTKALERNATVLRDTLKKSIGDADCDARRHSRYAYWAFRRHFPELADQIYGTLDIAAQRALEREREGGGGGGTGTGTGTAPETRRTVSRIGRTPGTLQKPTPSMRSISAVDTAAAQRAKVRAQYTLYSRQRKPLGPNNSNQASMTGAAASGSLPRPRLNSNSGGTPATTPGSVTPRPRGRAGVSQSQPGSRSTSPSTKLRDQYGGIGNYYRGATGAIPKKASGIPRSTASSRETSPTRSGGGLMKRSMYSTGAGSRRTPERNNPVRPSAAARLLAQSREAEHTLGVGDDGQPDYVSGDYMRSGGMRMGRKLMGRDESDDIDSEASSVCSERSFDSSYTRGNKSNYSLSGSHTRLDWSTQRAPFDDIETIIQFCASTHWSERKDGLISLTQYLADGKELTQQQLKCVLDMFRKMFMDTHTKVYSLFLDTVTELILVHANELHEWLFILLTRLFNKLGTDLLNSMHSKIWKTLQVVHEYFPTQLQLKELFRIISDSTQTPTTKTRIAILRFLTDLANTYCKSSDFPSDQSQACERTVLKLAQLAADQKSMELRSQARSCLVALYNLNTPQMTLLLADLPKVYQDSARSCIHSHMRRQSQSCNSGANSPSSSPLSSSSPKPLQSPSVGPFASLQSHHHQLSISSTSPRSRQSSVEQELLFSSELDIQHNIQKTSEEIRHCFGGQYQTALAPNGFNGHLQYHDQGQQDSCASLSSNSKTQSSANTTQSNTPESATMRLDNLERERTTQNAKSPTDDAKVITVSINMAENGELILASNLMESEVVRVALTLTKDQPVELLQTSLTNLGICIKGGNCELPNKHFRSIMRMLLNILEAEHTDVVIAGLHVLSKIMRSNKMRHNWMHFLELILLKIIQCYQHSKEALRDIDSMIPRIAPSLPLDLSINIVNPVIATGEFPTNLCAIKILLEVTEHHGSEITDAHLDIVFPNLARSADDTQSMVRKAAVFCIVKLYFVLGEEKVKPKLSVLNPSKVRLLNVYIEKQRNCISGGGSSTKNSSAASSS

[2] = target: T2, Orbit 1071-1492-GFP (Drosophila) (UniProt Q9NBD7); test: co-IP; lysate of S2 cells co-expressing mCherry-tagged Msps 1406–1596 (wild type or mutant) and GFP-tagged pieces of the Orbit TOG3-CT fragment
T2 sequence: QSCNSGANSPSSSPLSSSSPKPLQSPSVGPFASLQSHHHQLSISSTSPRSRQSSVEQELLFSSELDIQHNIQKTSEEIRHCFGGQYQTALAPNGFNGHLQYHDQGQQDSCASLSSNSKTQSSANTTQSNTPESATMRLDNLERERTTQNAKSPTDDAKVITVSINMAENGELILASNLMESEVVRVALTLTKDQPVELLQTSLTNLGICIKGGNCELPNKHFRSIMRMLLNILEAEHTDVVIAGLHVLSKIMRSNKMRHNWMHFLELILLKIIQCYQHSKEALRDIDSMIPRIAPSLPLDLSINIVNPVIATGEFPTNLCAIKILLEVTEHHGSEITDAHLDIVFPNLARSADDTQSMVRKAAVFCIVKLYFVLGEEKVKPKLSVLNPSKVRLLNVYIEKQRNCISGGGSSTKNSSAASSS

binding [1] | binding [2] | Substance
binds | – | Sentin, endogenous (Drosophila (endogenous in S2 cells))
– | no binding | mCherry-tagged Msps 1406–1596 3K3A (from UniProt Q9VEZ3) (domain or fragment)

Results are given in words; binding and its absence hold for the method and conditions named. Binding seen in cells or lysates may run through a third protein. For some assays here: Binding can be weak; no strength is given. For some assays here: Sequences can lack the tags named with a protein.
